Results are given in words; binding and its absence hold for the method and conditions named. For some assays here: In cells and extracts the contact can be indirect. Some binding calls cover weakened binding; strength is not graded here. For some assays here: Where a sequence is shown, tags or fusion partners need not be part of it.

Assay [1] addresses T1, BD-SAPK10 (rice (Oryza sativa)) (UniProt Q75H77).
T1 sequence: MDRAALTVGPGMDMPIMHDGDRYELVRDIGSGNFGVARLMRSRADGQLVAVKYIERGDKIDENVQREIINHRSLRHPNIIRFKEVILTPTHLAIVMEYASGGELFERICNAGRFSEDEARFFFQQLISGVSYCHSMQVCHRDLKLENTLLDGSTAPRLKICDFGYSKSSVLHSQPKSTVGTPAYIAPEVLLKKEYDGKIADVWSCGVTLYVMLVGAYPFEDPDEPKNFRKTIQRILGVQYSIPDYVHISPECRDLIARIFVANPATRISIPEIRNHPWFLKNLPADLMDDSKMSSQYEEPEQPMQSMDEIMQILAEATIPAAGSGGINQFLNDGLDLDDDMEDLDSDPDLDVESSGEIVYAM
Kind of assay: two-hybrid; Matchmaker GAL4 Two-Hybrid System 3, yeast AH109; BD-SAPK10 as bait (pGBKT7), AD fusions as prey (pGADT7); growth on SD without leucine, tryptophan and histidine, with 15 mM 3-AT.

Assay [2] addresses T2, VN-SAPK10 (rice (Oryza sativa)) (UniProt Q75H77).
T2 sequence: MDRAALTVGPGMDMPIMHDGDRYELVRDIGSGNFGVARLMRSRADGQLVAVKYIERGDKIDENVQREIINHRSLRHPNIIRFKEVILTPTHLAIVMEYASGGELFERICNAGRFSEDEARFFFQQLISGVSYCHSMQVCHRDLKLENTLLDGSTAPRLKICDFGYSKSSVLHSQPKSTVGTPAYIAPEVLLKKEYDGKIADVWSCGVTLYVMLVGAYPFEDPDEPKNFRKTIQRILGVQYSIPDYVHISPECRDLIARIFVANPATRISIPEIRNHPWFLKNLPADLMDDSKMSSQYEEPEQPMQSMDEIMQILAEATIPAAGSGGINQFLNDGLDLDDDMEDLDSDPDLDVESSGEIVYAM
Kind of assay: split reporter; BiFC with Venus halves (VN, VC) co-expressed in rice protoplasts; confocal microscopy; ER-mCherry as internal control, Venus signal/mCherry signal.

The target of assay [3] is T3, OsPP2C50-GFP (rice (Oryza sativa)) (UniProt Q6L5H6).
T3 sequence: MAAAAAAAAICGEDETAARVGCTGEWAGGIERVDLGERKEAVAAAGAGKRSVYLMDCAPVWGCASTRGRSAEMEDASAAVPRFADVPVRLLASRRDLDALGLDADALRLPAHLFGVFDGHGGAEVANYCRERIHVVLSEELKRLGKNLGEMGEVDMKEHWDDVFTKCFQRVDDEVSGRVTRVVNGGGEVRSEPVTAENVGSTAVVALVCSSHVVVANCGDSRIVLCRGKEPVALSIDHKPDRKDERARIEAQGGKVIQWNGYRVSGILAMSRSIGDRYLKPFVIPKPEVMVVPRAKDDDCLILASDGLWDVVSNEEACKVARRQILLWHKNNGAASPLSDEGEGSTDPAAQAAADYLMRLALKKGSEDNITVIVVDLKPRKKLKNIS
The assay is described as follows: co-IP; GFP fusion and Flag- or HA-tagged protein co-expressed in rice protoplasts; cellular extracts on GFP-trap beads, 4 °C, 2 h; 150 mM NaCl, 50 mM Tris-HCl pH 7.5, 0.5% NP40, 0.5% Triton X-100; immunoblot. Background: In western blotting, separated proteins are transferred to a membrane and probed.

In assay [4] the target is T4, OsPP2C53-GFP (rice (Oryza sativa)) (UniProt Q6L4R7).
T4 sequence: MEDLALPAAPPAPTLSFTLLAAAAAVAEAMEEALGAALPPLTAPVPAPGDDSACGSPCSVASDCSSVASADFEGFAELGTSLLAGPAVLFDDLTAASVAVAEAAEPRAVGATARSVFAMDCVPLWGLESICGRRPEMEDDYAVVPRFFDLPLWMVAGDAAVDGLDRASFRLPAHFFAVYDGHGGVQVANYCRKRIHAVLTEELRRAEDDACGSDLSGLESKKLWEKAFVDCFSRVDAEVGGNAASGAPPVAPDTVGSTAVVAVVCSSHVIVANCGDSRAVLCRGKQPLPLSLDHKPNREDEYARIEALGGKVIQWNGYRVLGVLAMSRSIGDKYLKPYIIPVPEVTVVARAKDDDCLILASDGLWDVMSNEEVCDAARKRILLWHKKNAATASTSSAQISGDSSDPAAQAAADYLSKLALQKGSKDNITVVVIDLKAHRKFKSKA
The description is as above.

B1: AD-OsPP2C06 (protein, UniProt Q0JLP9 1-467)
chain: MEDVAVAAALAPAPATAPVFSPAAAGLTLIAAAAADPIAAVVAGAMDGVVTVPPVRTASAVEDDAVAPGRGEEGGEASAVGSPCSVTSDCSSVASADFEGVGLGFFGAAADGGAAMVFEDSAASAATVEAEARVAAGARSVFAVECVPLWGHKSICGRRPEMEDAVVAVSRFFDIPLWMLTGNSVVDGLDPMSFRLPAHFFGVYDGHGGAQVANYCRERLHAALVEELSRIEGSVSGANLGSVEFKKKWEQAFVDCFSRVDEEVGGNASRGEAVAPETVGSTAVVAVICSSHIIVANCGDSRAVLCRGKQPVPLSVDHKPNREDEYARIEAEGGKVIQWNGYRVFGVLAMSRSIGDRYLKPWIIPVPEITIVPRAKDDECLVLASDGLWDVMSNEEVCDVARKRILLWHKKNGTNPASAPRSGDSSDPAAEAAAECLSKLALQKGSKDNISVIVVDLKAHRKFKSKS
For B1, the binding result in assay [1] is “binds”.

B2: AD-OsPP2C53 (protein, UniProt Q6L4R7 1-445)
chain: MEDLALPAAPPAPTLSFTLLAAAAAVAEAMEEALGAALPPLTAPVPAPGDDSACGSPCSVASDCSSVASADFEGFAELGTSLLAGPAVLFDDLTAASVAVAEAAEPRAVGATARSVFAMDCVPLWGLESICGRRPEMEDDYAVVPRFFDLPLWMVAGDAAVDGLDRASFRLPAHFFAVYDGHGGVQVANYCRKRIHAVLTEELRRAEDDACGSDLSGLESKKLWEKAFVDCFSRVDAEVGGNAASGAPPVAPDTVGSTAVVAVVCSSHVIVANCGDSRAVLCRGKQPLPLSLDHKPNREDEYARIEALGGKVIQWNGYRVLGVLAMSRSIGDKYLKPYIIPVPEVTVVARAKDDDCLILASDGLWDVMSNEEVCDAARKRILLWHKKNAATASTSSAQISGDSSDPAAQAAADYLSKLALQKGSKDNITVVVIDLKAHRKFKSKA
For B2, in assay [1], the binding entry is given as “binds”.

B3: OsPP2C53-VC (protein, UniProt Q6L4R7 1-445)
chain: MEDLALPAAPPAPTLSFTLLAAAAAVAEAMEEALGAALPPLTAPVPAPGDDSACGSPCSVASDCSSVASADFEGFAELGTSLLAGPAVLFDDLTAASVAVAEAAEPRAVGATARSVFAMDCVPLWGLESICGRRPEMEDDYAVVPRFFDLPLWMVAGDAAVDGLDRASFRLPAHFFAVYDGHGGVQVANYCRKRIHAVLTEELRRAEDDACGSDLSGLESKKLWEKAFVDCFSRVDAEVGGNAASGAPPVAPDTVGSTAVVAVVCSSHVIVANCGDSRAVLCRGKQPLPLSLDHKPNREDEYARIEALGGKVIQWNGYRVLGVLAMSRSIGDKYLKPYIIPVPEVTVVARAKDDDCLILASDGLWDVMSNEEVCDAARKRILLWHKKNAATASTSSAQISGDSSDPAAQAAADYLSKLALQKGSKDNITVVVIDLKAHRKFKSKA
As to B3, the binding result in assay [2] is “binds”.

B4: SAPK10-Flag (protein, UniProt Q75H77 1-362)
chain: MDRAALTVGPGMDMPIMHDGDRYELVRDIGSGNFGVARLMRSRADGQLVAVKYIERGDKIDENVQREIINHRSLRHPNIIRFKEVILTPTHLAIVMEYASGGELFERICNAGRFSEDEARFFFQQLISGVSYCHSMQVCHRDLKLENTLLDGSTAPRLKICDFGYSKSSVLHSQPKSTVGTPAYIAPEVLLKKEYDGKIADVWSCGVTLYVMLVGAYPFEDPDEPKNFRKTIQRILGVQYSIPDYVHISPECRDLIARIFVANPATRISIPEIRNHPWFLKNLPADLMDDSKMSSQYEEPEQPMQSMDEIMQILAEATIPAAGSGGINQFLNDGLDLDDDMEDLDSDPDLDVESSGEIVYAM
On to B4, for which the binding entry in assay [3] and in assay [4] was “binds” throughout.

B5: OsPP2C50-VC (protein, UniProt Q6L5H6 1-387)
chain: MAAAAAAAAICGEDETAARVGCTGEWAGGIERVDLGERKEAVAAAGAGKRSVYLMDCAPVWGCASTRGRSAEMEDASAAVPRFADVPVRLLASRRDLDALGLDADALRLPAHLFGVFDGHGGAEVANYCRERIHVVLSEELKRLGKNLGEMGEVDMKEHWDDVFTKCFQRVDDEVSGRVTRVVNGGGEVRSEPVTAENVGSTAVVALVCSSHVVVANCGDSRIVLCRGKEPVALSIDHKPDRKDERARIEAQGGKVIQWNGYRVSGILAMSRSIGDRYLKPFVIPKPEVMVVPRAKDDDCLILASDGLWDVVSNEEACKVARRQILLWHKNNGAASPLSDEGEGSTDPAAQAAADYLMRLALKKGSEDNITVIVVDLKPRKKLKNIS
Turning to B5, in assay [2], the binding entry was “binds”.

B6: AD-OsPP2C50 (protein, UniProt Q6L5H6 1-387)
chain: MAAAAAAAAICGEDETAARVGCTGEWAGGIERVDLGERKEAVAAAGAGKRSVYLMDCAPVWGCASTRGRSAEMEDASAAVPRFADVPVRLLASRRDLDALGLDADALRLPAHLFGVFDGHGGAEVANYCRERIHVVLSEELKRLGKNLGEMGEVDMKEHWDDVFTKCFQRVDDEVSGRVTRVVNGGGEVRSEPVTAENVGSTAVVALVCSSHVVVANCGDSRIVLCRGKEPVALSIDHKPDRKDERARIEAQGGKVIQWNGYRVSGILAMSRSIGDRYLKPFVIPKPEVMVVPRAKDDDCLILASDGLWDVVSNEEACKVARRQILLWHKNNGAASPLSDEGEGSTDPAAQAAADYLMRLALKKGSEDNITVIVVDLKPRKKLKNIS
Regarding B6, the binding entry in assay [1] is listed as “binds”.

B7: AD-OsPP2C09 (protein, UniProt Q5N9N2 1-414)
chain: MAEICCEEAMSPPATATAAVAAAVSASAAAAVSSAIDRRRRRMEMRRIRIASDLELQAGEDGRPGKRQRLARTASGAPRPDEDSASERPSCGRTEEFPRYGVTAVCGRRREMEDAVSIRPDFLPASGKFHFYGVFDGHGCSHVATTCQDRMHEIVAEEHNKGASGEVAPWRDVMEKSFARMDGEVGNRASTRSDDEPACPCEQQTPSRRDHAGSTAVVAVVSPTQVVVANAGDSRAVISRAGVPVALSVDHKPDRPDELERIEAAGGRVIYWDGARVLGVLAMSRAIGDGYLKPYVTSEPEVTVTERTDDDECLILASDGLWDVVTNEMACEVVRACFHNNGPPAPAARPSGVPSSAEAAETENGGAASVKGISKAESSDKACSDAAMLLTKLALARRSADNVSVVVVDLRRGL
In the case of B7, the binding result in assay [1] is given as “binds”.

The values above are taken from article PMC6536566.
